Experimental data taken from article PMC5758809.

Experiments:
[1] = biological target: T1, non-phosphorylated form of inhibitor-1 (human) (UniProt Q13522); assay: NMR titration; 1H-15N HSQC of 15N-labeled non-phosphorylated inhibitor-1 (8.0 uM) without and with unlabeled recombinant PP1 (8.0 uM), pH 6.0, 293 K, 500 MHz; both purified
T1 sequence: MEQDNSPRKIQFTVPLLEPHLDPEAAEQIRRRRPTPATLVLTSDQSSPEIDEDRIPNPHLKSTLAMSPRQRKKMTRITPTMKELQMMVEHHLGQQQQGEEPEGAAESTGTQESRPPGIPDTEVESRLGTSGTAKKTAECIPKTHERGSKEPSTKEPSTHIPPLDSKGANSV

[2] = biological target: T2, PKA-thiophosphorylated form of inhibitor-1 (human) (UniProt Q13522); assay: NMR titration; 1H-15N HSQC of 15N-labeled PKA-thiophosphorylated inhibitor-1 (40 uM) titrated with unlabeled recombinant PP1 (6.0 uM and 8.5 uM), pH 6.0, 293 K; inhibitor-1 is dephosphorylated by PP1 during the experiment; both purified
T2 sequence (chain, thiophosphorylated Thr35): T1 sequence

binding [1]: binds weakly
binding [2]: binds
Substance: recombinant PP1 (enzyme)

No constants are given. Whether binding was seen depends on the method and setting. Binding calls can cover weak binding; strength is not graded here.
